# Measurements as given in patent US4879303A, “Pharmaceutically acceptable salts” (priority 1986, dated 1989).
# At least one compound was matched to its structure with a doubt left.
# Assays:
# [1] = Stickiness: amlodipine sticking to tablet punch (processability); type: physicochemical
# Excerpt: 4. The final characteristic of an acceptable salt to be considered is the processability, i.e. the compression properties and also the ability not to stick or adhere to the tablet making machinery. For high dose formulations, good compressibility is very important to make elegant tablets. With lower dose tablets the need for good compressibility can be eliminated to a certain extent by the use of suitable diluting excipients called compression aids. Microcrystalline cellulose is a commonly used compression aid. However whatever the dose the adhesion of the drug to the punches of the tablet machine must be avoided. When drug accumulates on the punch surfaces this causes the tablet surface to become pitted and therefore unacceptable. […] In practice it is possible to reduce sticking by wet-massing, careful selection of excipients and the use of high levels of anti-adherents, e.g. magnesium stearate. […] This procedure was then repeated for runs of 100, 150, 200, 250 and 300 tables. After each run the amount of material sticking to the tablet punch was measured after extraction with methanol. The values are plotted and an average value calculated from the slope of the line produced. This same procedure was then repeated for each of the salts of amlodipine.
# [2] = Aqueous solubility of amlodipine salts and pH at saturation; type: physicochemical
# Excerpt: Although amlodipine is effective as the free base, in practice it is best administered in the form of a salt of a pharmaceutically acceptable acid.
# 1. Generally, it is known in the art that a good aqueous solubility is necessary for good bioavailability. […] In addition, salts which provide solutions having a pH close to that of blood (7.4) are preferred because they are readily biocompatible and can easily be buffered to the required pH range without altering their solubility.
structure (smiles),measurement,setting,value
CCOC(=O)C1=C(COCCN)NC(C)=C(C(=O)OC)C1c1ccccc1Cl (stereo not drawn) [Salicylate],Stickiness relative to maleate,[1]; relative to maleate,144%
same,Stickiness,"[1]; runs of 50 to 300 tablets, calcium sulphate dihydrate/microcrystalline cellulose/salt 47.5:47.5:5, average from slope",2.85 g Amlodipine cm^-2 tablet^-1
same,pH at saturation,[2],7.0
